{"sequences": {"note": "By UniProt entry, the sequences of proteins in these tests, tags left out. Residues count along the entry.", "UniProt P43220, 24-463 L260F/A316G": "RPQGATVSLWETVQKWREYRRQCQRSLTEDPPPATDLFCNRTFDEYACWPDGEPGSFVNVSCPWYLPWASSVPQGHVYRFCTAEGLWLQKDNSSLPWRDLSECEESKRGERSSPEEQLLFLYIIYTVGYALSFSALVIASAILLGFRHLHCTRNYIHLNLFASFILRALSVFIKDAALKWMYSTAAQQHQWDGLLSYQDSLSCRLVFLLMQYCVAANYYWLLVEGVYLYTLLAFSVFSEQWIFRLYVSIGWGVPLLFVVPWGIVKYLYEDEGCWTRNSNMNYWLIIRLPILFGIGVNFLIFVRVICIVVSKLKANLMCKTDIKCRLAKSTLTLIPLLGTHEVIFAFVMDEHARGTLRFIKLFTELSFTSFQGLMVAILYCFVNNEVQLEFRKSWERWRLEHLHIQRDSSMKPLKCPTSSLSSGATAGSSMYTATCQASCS"}, "source": "patent US20160297883A1", "about": "“G-PROTEIN COUPLED RECEPTOR AGONISTS AND METHODS” (Innovative Targeting Solutions, Inc., priority 2013, published 2016)", "note": "Some entries share one result that the patent states for a list of compounds. Some ranges recur; such a range may be that of the whole group of compounds.", "data": [{"biological_target": "T1, GLP1R (Homo sapiens, UniProt P43220, A316G/L260F)", "T1 construct": "host or cells: HuTARG cells (engineered HEK293), subclone L696 / L696.19", "assay": "cAMP-responsive CD19 surface reporter assay in HuTARG-L696 GLP1R reporter cell line (FACS)", "conditions": "cAMP reporter based assay; relative to ITS007-V125 prior to mutagenesis", "source_text": "HuTARG™ cells, which are HEK293 cells engineered to be capable of de novo antibody generation, were used to generate the reporter cell line. HuTARG™ cells have been stably transfected with expression cassettes for RAG1 and RAG-2 and Tdt. RAG-1 expression is inducible as the gene has been placed downstream of a Tet inducible promoter. HuTARG™ cells have also been stably transfected with a plasmid containing a LoxP site for subsequent insertion of V(D)J substrates.\nHuTARG™ cells were modified to express the GLP1 receptor as well as express a reporter gene that was activated by cAMP. Approximately 20 million HuTARG™ cells without an integrated V(D)J substrate were transfected with a vector containing CMV driven GLP1R (V525, Origene, SEQ ID NO:21; FIG. 17) and a second vector with a Neomycin resistant marker and a reporter gene (CD19) whose expression is controlled by a cAMP responsive promoter and a (E518; SEQ ID NO:22; FIG. 18). cAMP promoter elements were derived from pGL4.29 (Promega). Twenty micrograms of DNA (50:50 mix) and sixty micrograms of PEI was used for the transfection. Neomycin selection was used to generate a pool of cells stably expressing different ratios of each vector. […]\nDepleted cells were subsequently expanded and depleted an additional time using the same protocol except using a Miltenyi LD magnetic column. […] Single cell clones confirmed to have minimal CD19 expression in the absence of ligand were evaluated for induction of CD19 in the presence of 10 nM Exendin and the L696 subclone was selected. […]\nThe peptide-grafted antibody, ITS007-V107, was subsequently cloned and expressed as a single-domain VH-IgG antibody without CH1 or a light chain and it was confirmed that the peptide-grafted heavy chain was functional in this format as well (FIG. 12). […]\nITS007-V125 was cloned into a secretion vector, expressed and purified. […] The next day, binding and the percentage of cells expressing the surface marker were determined by FACS.", "values": [{"substance": "ITS007-V211: C-terminal exendin mutant HCAb, SEQ ID NO:90 (CARDERHGEGTFTSDLSKQMEEEAVRLFIEWLKNGGPSESSGAPPPSVA; ITS007-V211 exendin junction)", "fold increase in agonist activity over original ITS007-V125 clone": "3-4 fold"}, {"substance": "ITS007-V209: C-terminal exendin mutant HCAb, SEQ ID NO:89 (CARDERHGEGTFTSDLSKQMEEEAVRLFIEWLKNGGPSAESSGAPPPSVA; ITS007-V209 exendin junction)", "fold increase in agonist activity over original ITS007-V125 clone": "3-4 fold"}, {"substance": "ITS007-V206: C-terminal exendin mutant HCAb, SEQ ID NO:88 (CARDERHGEGTFTSDLSKQMEEEAVRLFIEWLKNGGPSEASGAPPPSVA; ITS007-V206 exendin junction)", "fold increase in agonist activity over original ITS007-V125 clone": "3-4 fold"}]}]}
